Literature values, collected in patent US10775394B2, “Immunoassay for phenethylamines of the 2C and DO sub-families” (Randox Laboratories Limited, priority 2013, dated 2020).
Some results were stated once for a whole list of compounds, not compound by compound. For at least one compound, name, drawing or mass did not settle the structure.

What was measured:
Randox MDPV kit = settings: compared to 100% for (±)-MDPV, Swortwood et al 2013, Table 7; cited from earlier work
[1] = tested on: Randox mephedrone/methcathinone kit; settings: compared to 100% for (±)-mephedrone, Swortwood et al 2013, Table 7; cited from earlier work

SMILES	cross-reactivity (Randox MDPV kit)	cross-reactivity [1]
COc1cc(CC(C)N)c(OC)cc1C (racemic) [DOM, 1-(2,5-dimethoxy-4-methylphenyl)propan-2-amine]	less than 0.1%	less than 0.0125%
COc1cc(CC(C)N)c(OC)cc1Br (racemic) [DOB, 1-(4-bromo-2,5-dimethoxyphenyl)propan-2-amine]	less than 0.1%	less than 0.0125%
CCc1cc(OC)c(CC(C)N)cc1OC (stereo not shown) [DOET]	less than 0.1%	less than 0.0125%
COc1cc(CCN)c(OC)cc1Br [Hapten 2C-B, 1-(4-bromo-2,5-dimethoxyphenyl)ethan-2-amine]	less than 0.1%	less than 0.0125%
CCc1cc(OC)c(CCN)cc1OC [Hapten 2C-E, 1-(2,5-dimethoxy-4-ethylphenyl)ethan-2-amine]	less than 0.1%	less than 0.0125%
